The record followed here is paper PMC12069340 (Frontiers in Cellular and Infection Microbiology, 2025).

The series in a line: in vitro. The conditions noted are these: human, Relative Viability (%).

The viability is a read-out of living cells in per cent, often relative to untreated cells. `CN1[C@@H]2CC[C@H]1C[C@@H](OC(=O)C(CO)c1ccccc1)C2` (some centres unmarked) [Atropine]: the viability at 20 µM is 164%.
The same measure for `CCN(CC)CC(=O)Nc1c(C)cccc1C` [Lidocaine]: 94.2%.
